According to the supplement of paper PMC12823440, “Inhibitors supercharge kinase turnover through native proteolytic circuits” (Nature, 2025):
Where a name gives a salt, the structure may show the parent alone. Some of the results follow. Hit calls seldom repeat between salt and free forms of one compound.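 Kinases were expressed as nanoluciferase fusions in K562 cells and luminescence was read every 4 h between 2 and 18 h as percent of control, DMSO set to 100% and a positive control to 0%. A time point counts as decreased when the signal drops significantly (2 sigma). The hit call is the authors' own, does not follow from the count of time points alone, and its rule is not shown.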

The chains behind the UniProt entries cited, without tags or fusion partners.
UniProt Q9NYA1, whole entry: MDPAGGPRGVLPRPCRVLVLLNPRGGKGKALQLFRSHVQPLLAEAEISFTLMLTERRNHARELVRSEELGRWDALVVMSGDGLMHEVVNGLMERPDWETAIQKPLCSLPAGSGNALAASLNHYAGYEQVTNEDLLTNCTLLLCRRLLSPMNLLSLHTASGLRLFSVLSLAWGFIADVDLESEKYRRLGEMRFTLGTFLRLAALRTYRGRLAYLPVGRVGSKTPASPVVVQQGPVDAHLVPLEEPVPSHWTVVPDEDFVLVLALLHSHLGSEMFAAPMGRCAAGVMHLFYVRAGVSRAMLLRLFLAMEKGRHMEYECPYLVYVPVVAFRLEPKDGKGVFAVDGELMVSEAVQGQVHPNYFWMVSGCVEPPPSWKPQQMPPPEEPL

The compounds below were run against SPHK1 (UniProt Q9NYA1) (assay: number of time points (of 5) at which kinase-Nluc abundance scored as decreased, DMSO-normalised (count); higher = more persistent destabilization). Conditions: K562; 2-18 h.
`CC(C)CN(CC(=O)N1CCN(CC(OCc2ccc3ccccc3c2)c2ccc(Cl)cc2Cl)CC1)CC(C)C` (stereo unspecified) [LYN-1604 (dihydrochloride)] (2.5 µM) was tested, and the “number of time points” value was 0.
For `CO[C@H]1C[C@@H]2CC[C@@H](C)[C@@](O)(O2)C(=O)C(=O)N2CCCC[C@H]2C(=O)O[C@H]([C@H](C)C[C@@H]2CC[C@@H](O)[C@H](OC)C2)CC(=O)[C@H](C)/C=C(\C)[C@@H](O)[C@@H](OC)C(=O)[C@H](C)C[C@H](C)/C=C/C=C/C=C/1C` [Rapamycin] (10 µM), the “number of time points” value was 0.
`Cc1ccc(Nc2cc(-c3cccc(N4C(=O)c5ccccc5C4=O)c3)ncn2)cc1NS(C)(=O)=O` (10 µM) was tested, and the “number of time points” value was 0.
With `Nc1cc(Nc2ccc(S(N)(=O)=O)cc2)ncn1` (10 µM) the “number of time points” value was 0.
`CCOc1cc(C(=O)N2CCC(N3CCN(C)CC3)CC2)ccc1Nc1ncc2c(n1)N(C1CCCC1)c1ccccc1C(=O)N2C` (10 µM) was tested, and the “number of time points” value was 0.
`COCCOc1ccc(-c2cn(-c3ccccc3)c3nc[nH]c(=O)c23)cc1` (10 µM) was tested, and the “number of time points” value was 0.
With `Cc1cc(O)c(C(C)C)cc1N=O` [Poloxime] (10 µM) the “number of time points” value was 0.

The compounds below were run against SRC (UniProt P12931) in the same assay as above. Conditions: K562; 2-18 h.
With `COc1ccc(Cn2cc(C(=O)N=Nc3c(O)[nH]c4c(C)cccc34)nn2)cc1` [MARK4 inhibitor 1] (10 µM) the “number of time points” value was 0.
With `COc1cc([N+](=O)[O-])ccc1S(=O)(=O)N1C[C@@H](CN2CCN(c3ccccn3)CC2)[C@H](c2cccc(F)c2)C1` (relative stereo) (10 µM) the “number of time points” value was 0.
`Cc1cc(Nc2nc(N[C@@H](C)c3ccc(F)cc3)c(C#N)cc2F)n[nH]1` (10 µM) was tested, and the “number of time points” value was 0.
In the case of `Cc1ccc(S(=O)(=O)/C=C/C#N)cc1` (10 µM), the “number of time points” value is reported as 0.
In the case of `Cc1c(CN2CCN(S(C)(=O)=O)CC2)sc2c(N3CCOCC3)nc(-c3cnc(N)nc3)nc12` (2.5 µM), the “number of time points” value is reported as 0.
`COc1ccc(-c2ccc3c(N4CCOC[C@@H]4C)nc(N4CCOC[C@@H]4C)nc3n2)cc1CO` (2.5 µM) was tested, and the “number of time points” value was 0.
`CCN(CC)S(=O)(=O)c1ccc(OC)c(N2CCN(C(=O)c3ccc(F)cc3C(F)(F)F)CC2)c1` (10 µM) was tested, and the “number of time points” value was 0.
`CC1CN(C(=O)Nc2ccc(Cl)c(Cl)c2)C(=Nc2ccc(F)cc2)S1` (stereo unspecified) (10 µM) was tested, and the “number of time points” value was 0.
For `COCCO[C@@H]1[C@H](O)[C@@H](CO)O[C@H]1n1cnc2c(=O)[nH]c(N)nc21` [2′-O-(2-Methoxyethyl)guanosine] (10 µM), the “number of time points” value was 0.
With `COc1cc(F)c(F)c(Nc2ccc(I)cc2F)c1NS(=O)(=O)C1(C[C@H](O)CO)CC1` [Refametinib] (10 µM) the “number of time points” value was 0.
`CC(C)=CC[C@H](O)C1=CC(=O)c2c(O)ccc(O)c2C1=O` [(-)-Alkannin] (2.5 µM) was tested, and the “number of time points” value was 0.
For `C[C@@]1(O)CCC[C@H]1n1c(=O)c(C(F)F)cc2cnc(NC3CCN(S(C)(=O)=O)CC3)nc21` (2.5 µM), the “number of time points” value was 0.
In the case of `CS(=O)(=O)c1ccc(-c2noc(C(F)(F)F)c2-c2ccccc2)cc1` (10 µM), the “number of time points” value is reported as 0.
For `COc1ccc2[nH]cc(/C=C3\C(=O)Nc4ccc(NC(=O)CCN5CCCCC5)cc43)c2c1` (2.5 µM), the “number of time points” value was 0.
For `O=C(Nc1ccc(F)cc1F)[C@H](NC(=S)Nc1cc(C(F)(F)F)cc(C(F)(F)F)c1)c1ccccc1` (2.5 µM), the “number of time points” value was 0.
For `CC(C)CN[C@H]1CS(=O)(=O)C[C@@H]1S(=O)(=O)c1ccc(Cl)cc1` (10 µM), the “number of time points” value was 0.
With `COc1ccc(C2CC(c3ccccc3)=NN2c2ccc(S(N)(=O)=O)cc2)cc1` (stereo unspecified) (10 µM) the “number of time points” value was 0.
`CC/C=C\C/C=C\C/C=C\CCCCCCCC(=O)O` [α-Linolenic acid] (10 µM) was tested, and the “number of time points” value was 0.
`O=C(Nc1nc2ccccc2[nH]1)c1cccc(-n2cccc2)c1` (10 µM) was tested, and the “number of time points” value was 0.
In the case of `COc1ncc(-c2nc(N3CCOCC3)nc3c(CN4CCC(C(C)(C)O)CC4)cc(F)cc23)cc1NS(C)(=O)=O` [Linperlisib] (10 µM), the “number of time points” value is reported as 0.
`COc1ccc([C@H]2c3[nH]c4ccc(Cl)cc4c3CCN2C(=O)Oc2ccc(Cl)cc2)cc1` (2.5 µM) was tested, and the “number of time points” value was 0.
For `COc1c(NC(=O)C(=O)c2ccc(OCCN3CCOCC3)c3ccccc23)cc(C(C)(C)C)cc1NS(C)(=O)=O` (2.5 µM), the “number of time points” value was 0.
`COc1ccc([C@@H]2CC(=O)c3c(O)cc(O)cc3O2)cc1O` [Hesperetin] (10 µM) was tested, and the “number of time points” value was 0.
With `N#Cc1cccc(-c2c[nH]c3ncnc(N4CCOCC4)c23)c1` (10 µM) the “number of time points” value was 0.
With `C/C(=C1/C(=O)Nc2ccc(NC(N)=O)cc21)c1ccc[nH]1` (10 µM) the “number of time points” value was 0.
In the case of `Nc1ncnc2c1c(-c1ccc(Oc3ccccc3)cc1)nn2C1CCNCC1` [N-piperidine Ibrutinib (hydrochloride)] (10 µM), the “number of time points” value is reported as 0.
In the case of `N#Cc1ccc2ncnc(NC3CCC(N4CCOCC4)CC3)c2c1` (stereo unspecified) (10 µM), the “number of time points” value is reported as 0.
`CC(=O)c1c(C)c2cnc(Nc3ccc(N4CCN(CCCCNC(=O)COc5cccc6c5C(=O)N(C5CCC(=O)NC5=O)C6=O)CC4)cn3)nc2n(C2CCCC2)c1=O` (stereo unspecified) (10 µM) was tested, and the “number of time points” value was 0.
In the case of `CC(C)=CC(=O)CCC(=O)N1CCN(Cc2cc3nc(-c4cccc5[nH]ncc45)nc(N4CCOCC4)c3s2)CC1` (10 µM), the “number of time points” value is reported as 0.
For `Cc1ccc(S(=O)(=O)Nc2ccccc2C=Nc2ccccc2NS(=O)(=O)c2ccc(C)cc2)cc1` (10 µM), the “number of time points” value was 0.
With `NCCN1CCN(C/C=C/C(=O)N2CCC[C@@H](n3nc(-c4ccc(Oc5ccccc5)cc4)c4c(N)ncnc43)C2)CC1` [Ibrutinib-MPEA] (10 µM) the “number of time points” value was 0.
For `O=C(CNC(=O)c1ccc(-c2ccccc2)cc1)NC1CCCc2ccccc21` (stereo unspecified) [TAO Kinase inhibitor 1] (10 µM), the “number of time points” value was 0.
In the case of `CC(C)CN(CC(=O)N1CCN(CC(OCc2ccc3ccccc3c2)c2ccc(Cl)cc2Cl)CC1)CC(C)C` (stereo unspecified) [LYN-1604 (dihydrochloride)] (2.5 µM), the “number of time points” value is reported as 0.
`CO[C@H]1C[C@@H]2CC[C@@H](C)[C@@](O)(O2)C(=O)C(=O)N2CCCC[C@H]2C(=O)O[C@H]([C@H](C)C[C@@H]2CC[C@@H](O)[C@H](OC)C2)CC(=O)[C@H](C)/C=C(\C)[C@@H](O)[C@@H](OC)C(=O)[C@H](C)C[C@H](C)/C=C/C=C/C=C/1C` [Rapamycin] (10 µM) was tested, and the “number of time points” value was 0.
For `Cc1ccc(Nc2cc(-c3cccc(N4C(=O)c5ccccc5C4=O)c3)ncn2)cc1NS(C)(=O)=O` (10 µM), the “number of time points” value was 0.
In the case of `Nc1cc(Nc2ccc(S(N)(=O)=O)cc2)ncn1` (10 µM), the “number of time points” value is reported as 0.
With `CCOc1cc(C(=O)N2CCC(N3CCN(C)CC3)CC2)ccc1Nc1ncc2c(n1)N(C1CCCC1)c1ccccc1C(=O)N2C` (10 µM) the “number of time points” value was 0.
For `COCCOc1ccc(-c2cn(-c3ccccc3)c3nc[nH]c(=O)c23)cc1` (10 µM), the “number of time points” value was 0.
In the case of `Cc1cc(O)c(C(C)C)cc1N=O` [Poloxime] (10 µM), the “number of time points” value is reported as 0.
